## Binding screen against folded nucleic acids

Calls as published in the ROBIN set (doi:10.1002/anie.202211358).

Targets, with sequences 5′ to 3′:
SAM-II: SAM-II riboswitch RNA pseudoknot, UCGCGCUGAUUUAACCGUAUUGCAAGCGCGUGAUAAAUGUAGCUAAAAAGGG. About 200 hits among about 21,000 compounds.
TPP: TPP riboswitch RNA three-way junction, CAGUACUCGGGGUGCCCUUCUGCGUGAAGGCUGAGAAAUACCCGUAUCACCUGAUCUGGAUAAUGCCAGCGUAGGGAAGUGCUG. About 160 hits among about 24,000 compounds.
PreQ1: PreQ1 riboswitch RNA pseudoknot, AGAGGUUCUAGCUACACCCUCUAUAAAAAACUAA. From B. subtilis. About 170 hits among about 24,000 compounds.

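Compounds were printed on reactive glass slides in duplicate spots, a dye-labelled oligonucleotide was laid over them, and the fluorescence left after washing was read. For the PreQ1, TPP and SAM-II riboswitches the laboratory earlier reported (doi:10.1038/s41467-019-09493-3) 1 µM RNA, 2 h, and a rule that included a mean Z-score above 3 (spot signal-to-noise against the whole library), a score well above that on a control array, and duplicate spots agreeing (coefficient of variation under 100). The data file gives only the calls; its cut-offs may differ, and compounds hitting several targets are kept. A missing hit is not proof of no binding, and a hit is not a measured affinity.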 A compound is marked yes if it was called a hit and no if it was screened but was not. This is an unselected part of the compounds tested. A dash means that no call is listed here.

Compound	SAM-II	TPP	PreQ1
Nc1nc2c3ccccc3nc(-c3ccccc3)n2n1	no	no	no
CCOC(=O)c1cnc2ccc(C(=O)OC)cc2c1NCCN(C)C	no	no	no
Cn1c(CC(=O)NCCO)c(Sc2ccccc2)c2ccccc21	no	no	no
C=CCOc1c(Br)cc(C2C(C#N)=C(N)Oc3cc4c(cc32)OCO4)cc1OCC (stereo not drawn)	no	no	no
C=CCNc1ccccc1C(=O)NCCc1nc(-c2ccncc2)n[nH]1	no	no	no
c1ccc(-n2nnnc2-c2cccc3ccccc23)cc1	no	no	no
CCOC(=O)c1cnc2c(C(F)(F)F)cccc2c1Nc1cc(C)ccc1O	no	no	no
CCCc1cc(N2C[C@H](O)[C@@H](N3CCN(C)CC3)C2)nc(C)n1	no	no	no
Cc1[nH]c2ccccc2c1CCNc1ncnc2sc(C)c(C)c12	no	no	no
CCOC(=O)c1ccc2nc(C)cc(Nc3ccccc3OCC)c2c1	no	no	no
CCc1nc2c(N3CC[C@H](CO)[C@H](O)C3)ncnc2o1	no	no	no
CCC[C@@H]1CN(c2cc(NCCO)ncn2)C[C@H]1C(=O)O	no	no	no
OCCC[C@@H]1CN(Cc2nnc(-c3ccccc3)o2)CC[C@@H]1N1CCOCC1	no	no	no
O=c1c2ccccc2nc(CNc2ccccc2)n1-c1ccccc1F	no	no	no
CC(C)(C)C(=O)c1snc(Nc2ccc(Cl)cc2F)c1N	no	no	no
Cc1ccccc1N1C(=O)C(Oc2ccc(Cl)cc2)C1CNC(C)C (stereo not drawn)	no	no	no
Cc1ccc2[nH]cc(C(O)CN3CCC(Cc4ccccc4)CC3)c2c1 (stereo not drawn)	-	no	no
O=C(Cn1ccc(=O)[nH]c1=O)Nc1nccs1	no	no	no
CCOC(=O)C1=C(C)OC(N)=C(C#N)C12C(=O)Nc1ccc(Br)cc12 (stereo not drawn)	no	no	no
Nc1nccc(N2CC[C@@H]3[C@@H](CCC(=O)N3CCc3cccs3)C2)n1	no	no	no
O=C(O)CNc1cccc(C(=O)NCCN2CCCCC2)c1	no	no	no
Cc1cc(C)c2c(N)nn(C(=O)c3ccc(Cl)cc3)c2n1	no	no	no
O=[N+]([O-])c1ccc(Cl)c(N2CCNCC2)c1	no	no	no
CCOCCCNCc1c(C(=O)O)n(Cc2ccc(F)cc2)c2ccccc12	-	no	no
Cc1cc2cccc(NC(=O)N[C@H]3CC[C@H](O)CC3)c2o1	no	no	no
CC(C)(C)N(CC#CC(O)(c1ccccc1)c1ccccc1)CCO	no	no	no
CN(CCC(O)c1ccccc1)c1cc(C2CC2)ncn1 (stereo not drawn)	no	no	no
COC(=O)c1cc(NC2c3ncccc3C(=O)N2Cc2ccccc2)cc(C(=O)OC)c1 (stereo not drawn)	no	no	no
c1ccn2c(CCNC3CCOC4(CCOCC4)C3)cnc2c1 (stereo not drawn)	no	no	no
NCCn1cc(C(=O)NCCc2noc(-c3ccccc3)n2)nn1	no	no	no
C=CCOc1ccc(CNCCNC(=O)c2nonc2N)cc1	no	no	no
COC(=O)c1ccc2nc(C)cc(Nc3ccc(F)cc3)c2c1	no	no	no
Cc1cc(C)cc(OCC(O)Cn2c(C3CC(=O)N(c4ccccc4)C3)nc3ccccc32)c1 (stereo not drawn)	-	no	no
Cc1nnc2c3ccccc3nc(Nc3cccc(Cl)c3)n12	-	no	no
CO[C@H]1CN(Cc2cc(Cn3cncn3)c(C)cc2C)CC[C@H]1N	no	no	no
CC(C)(N)C(=O)N1CCCC(C(=O)c2cccc(C(F)(F)F)c2)C1 (stereo not drawn)	no	no	no
COc1ccc(C2(C(=O)N3CCOCC(O)C3)CCCC2)cc1OC (stereo not drawn)	no	no	no
Nc1c(-c2ccccc2)nc2ccccn12	no	no	no
CCc1ccc(C2C(C#N)=C(N)OC3=C2S(=O)(=O)N(Cc2ccccc2F)c2ccccc23)cc1 (stereo not drawn)	-	no	no
Cc1ccc(NC(=O)N2CCCN(C(=O)c3nonc3N)CC2)cc1C	-	no	no
Cc1ccc(CN2c3ccccc3C3=C(C(c4ccc(Cl)cc4)C(C#N)=C(N)O3)S2(=O)=O)cc1 (stereo not drawn)	-	no	no
CCc1ccc(C2C(C#N)=C(N)OC3=C2S(=O)(=O)N(CC)c2ccccc23)cc1 (stereo not drawn)	-	no	no
O=C(/C=C\c1ccc(O)c(O)c1)OC1C(O)CC(OC(=O)/C=C/c2ccc(O)c(O)c2)(C(=O)O)CC1O (stereo not drawn)	no	no	no
Cc1cccc(-c2nc3nc(C)cc(N(CCO)CCO)n3n2)c1	-	no	no
CC1C2CC(C(C(Nc3ccccc3)c3ccccc3)C2=O)C1(C)C (stereo not drawn)	no	no	no
COc1ccc(CCc2nc(-c3nonc3N)no2)cc1	no	no	no
O=c1[nH]c(C(O)c2ccccc2)nc2c1CCNC2 (stereo not drawn)	no	no	no
CCSc1ncc(CN2C[C@@H](CN3CCN(C)CC3)[C@@H](CO)C2)cn1	no	no	no
N#Cc1cc2c(=O)n(CC3(CO)CCCC3)ccc2[nH]c1=O	no	no	no
COc1ccc(C2CC(=O)Nc3nc(N)sc32)cc1Br (stereo not drawn)	no	no	no
CC(NC1Cc2ccccc2C1)c1cn2ccsc2n1 (stereo not drawn)	no	no	no
COc1ccc(Cc2nc3ccccc3n2CC(O)COc2ccccc2)cc1 (stereo not drawn)	-	no	no
CCOc1ccc(CNCCc2ccc(OC)c(OC)c2)cc1	no	no	no
CCOC(=O)N1CCN(c2c(NC3CCCC(C)C3C)c(=O)c2=O)CC1 (stereo not drawn)	-	no	no
Cc1ccc(Nc2nc3ccccc3c3nncn23)cc1C	no	no	no
COCCOC(=O)C1=C(C)OC(N)=C(C#N)C12C(=O)N(C)c1ccccc12 (stereo not drawn)	no	no	no
CC(C)(C)NCC(O)c1ccc(O)c(CO)c1 (stereo not drawn)	no	no	no
Cc1nc2c(-c3ccc(Cl)cc3)c(C)nn2c(N)c1-c1ccccc1	no	no	no
Fc1ccc(NC(c2ccccc2)c2nnc(-c3ccccc3F)o2)c(F)c1 (stereo not drawn)	no	no	no

6 of the entries, repeated:

Compound	SAM-II	TPP	PreQ1
CCOCCCNCc1c(C(=O)O)n(Cc2ccc(F)cc2)c2ccccc12	-	no	no
CCc1ccc(C2C(C#N)=C(N)OC3=C2S(=O)(=O)N(Cc2ccccc2F)c2ccccc23)cc1 (stereo not drawn)	-	no	no
N#Cc1cc2c(=O)n(CC3(CO)CCCC3)ccc2[nH]c1=O	no	no	no
CCCc1cc(N2C[C@H](O)[C@@H](N3CCN(C)CC3)C2)nc(C)n1	no	no	no
Cc1ccc(NC(=O)N2CCCN(C(=O)c3nonc3N)CC2)cc1C	-	no	no
C=CCOc1c(Br)cc(C2C(C#N)=C(N)Oc3cc4c(cc32)OCO4)cc1OCC (stereo not drawn)	no	no	no